# Results reported in the supplement of paper PMC12067093, “Discovery and optimisation of a covalent ligand for TRIM25 and its application to targeted protein ubiquitination” (Chemical Science, 2025).
# The list shows a part of the results.
# Compound: Cc1cc(ccc1-c1ccccc1)C(=O)N1CCCN(CC1)C(=O)CCl [compound 10]
# Assay: probe-labelled cysteine peptide fold change vs DMSO (competition) (log2 fold change); higher = less target engagement (more negative = stronger competition)
# Details: THP-1, incubation time: 4 h
# 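Further: competitive profiling in live THP-1 cells: cysteine peptides tagged with an iodoacetamide desthiobiotin (IA-DTB) probe, intensity after compound treatment relative to DMSO-treated cells.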
Target,probe-labelled cysteine peptide fold change (10 µM),probe-labelled cysteine peptide fold change (50 µM)
RAB3GAP2_Q9H2M9_828_TACIQSENNGAALLSAHVGHSVAAQISNNMTEK (UniProt Q9H2M9),0.0246,-0.107
RABEP1_Q15276_263_ELHEVCHLLEQER (UniProt Q15276),0.00619,0.0126
QPRT_Q15274_111_CSGIASAAAAAVEAAR (UniProt Q15274),0.0437,0.072
PUS3_Q9BZE2_420_CQGLESR (UniProt Q9BZE2),-0.377,-0.224
RAB14_P61106_26_SCLLHQFTEKK (UniProt P61106),-0.207,-0.895
QSOX1_O00391_110_AWRPALYLAALDCAEETNSAVCR (UniProt O00391),-0.147,-0.174
RABL3_Q5HYI8_180_TAFLAEDFNPEEINLDCTNPR (UniProt Q5HYI8),-0.255,0.0436
QTRT2_Q9H974_174_SLLFLDNCLR (UniProt Q9H974),0.232,0.283
RABGAP1L_Q5R372_330_CFGMLLSPGR (UniProt Q5R372),0.134,0.22
RAB36_O95755_247_DLLSGAACEQAEADAVHLAR (UniProt O95755),-0.0899,-0.308
QSOX2_Q6ZRP7_476_YVHTFFGCK (UniProt Q6ZRP7),-0.059,-0.0526
RAB3GAP2_Q9H2M9_896_QLEDCLILQTLLHSK (UniProt Q9H2M9),0.131,-0.0661
RABEP1_Q15276_350_IPVVCALTQEESSAQLSNEEEHLDSTR (UniProt Q15276),0.19,0.0593
RAB7B_Q96AH8_142_KVPQEVAQGWCR (UniProt Q96AH8),0.0385,0.284
RACK1_P63244_207_TNHIGHTGYLNTVTVSPDGSLCASGGK (UniProt P63244),0.0693,0.0524
QSOX2_Q6ZRP7_131_NQAVCHDYDIHFYPTFR (UniProt Q6ZRP7),-0.168,-0.13
RAD9A_Q99638_3_CLVTGGNVK (UniProt Q99638),0.0786,-0.0956
RABIF_P47224_23_AVLCQR (UniProt P47224),0.22,-0.192
RAD54B_Q9Y620_320_CGAILADEMGLGK (UniProt Q9Y620),0.0206,-0.483
PUS7L_Q9H0K6_207_ELCHLVSEEEAFDFFK (UniProt Q9H0K6),0.162,0.362
QTRT1_Q9BXR0_319_DFGPIDPECTCPTCQK (UniProt Q9BXR0),-0.262,-0.146

# Quoted from the listing.
# Entry of RABL3_Q5HYI8_180_TAFLAEDFNPEEINLDCTNPR (UniProt Q5HYI8) under probe-labelled cysteine peptide fold change (10 µM): -0.255
# Entry of QSOX2_Q6ZRP7_476_YVHTFFGCK (UniProt Q6ZRP7) under probe-labelled cysteine peptide fold change (10 µM): -0.059

# Later entries.

Target,probe-labelled cysteine peptide fold change (10 µM),probe-labelled cysteine peptide fold change (50 µM)
RACK1_P63244_240+249_HLYTLDGGDIINALCFSPNRYWLCAATGPSIK (UniProt P63244),-0.0719,-0.365
RABL3_Q5HYI8_27_SSLVHLLCQNQVLGNPSWTVGCSVDVR (UniProt Q5HYI8),0.146,-0.025
RABGAP1L_Q5R372_665_NNFEDLHCK (UniProt Q5R372),0.206,0.197
RABEP2_Q9H5N1_372_CLHHEVK (UniProt Q9H5N1),-0.042,-0.463
RAB10_P61026_124_CDMDDK (UniProt P61026),-0.104,0.0844
QARS_P47897_433+445+456_WCIYPTYDYTHCLCDSIEHITHSLCTK (UniProt P47897),0.0988,-0.441
RAD51B_O15315_32_HQILTCQDFLCLSPLELMK (UniProt O15315),-0.072,-0.135
RAB14_P61106_26_SCLLHQFTEK (UniProt P61106),0.0348,0.0753
PWP2_Q15269_612_AFTALCYSADGHSILAGGMSK (UniProt Q15269),0.215,0.425
PYGB_P11216_437_MSVIEEGDCK (UniProt P11216),-0.0635,-0.0351
PWP2_Q15269_508_LLDVLSGHEGPISGLCFNPMK (UniProt Q15269),0.15,-0.0271
RAE1_P78406_106_VFTASCDK (UniProt P78406),-0.028,-0.273
QRSL1_Q9H0R6_278_LCIGIPK (UniProt Q9H0R6),0.155,0.0481
RAB7B_Q96AH8_142_VPQEVAQGWCR (UniProt Q96AH8),-0.0255,0.0526
RAD50_Q92878_633_LFDVCGSQDFESDLDRLK (UniProt Q92878),0.217,0.0288
RABGEF1_Q9UJ41_359_DLSIEEQSECAQDFYHNVAER (UniProt Q9UJ41),-0.389,-0.123
RABL6_Q3YEC7_140_NCNGVVMMFDITK (UniProt Q3YEC7),0.055,0.0746
RACGAP1_Q9H0H5_419_VDDIHAICSLLK (UniProt Q9H0H5),0.00786,0.00467
RAD54L2_Q9Y4B4_533_QEFSNMFERPILNGQCIDSTPQDVR (UniProt Q9Y4B4),-0.116,-0.125
RADIL_Q96JH8_298_PSISLSAPDILPLHCTIR (UniProt Q96JH8),0.0599,0.353
QTRT1_Q9BXR0_67_GITTEQLDALGCR (UniProt Q9BXR0),0.073,-0.35

Target,probe-labelled cysteine peptide fold change (10 µM),probe-labelled cysteine peptide fold change (50 µM)
RAB11FIP1_Q6WKZ4_711_NTSSLELEESLPEQPETGRQEEELPRFPCK (UniProt Q6WKZ4),-0.0697,-0.758
PXK_Q7Z7A4_112_GLQNYLNVITTNHILSNCELVK (UniProt Q7Z7A4),0.0598,0.218
QSOX1_O00391_101+110_AWRPALYLAALDCAEETNSAVCR (UniProt O00391),0.0391,-0.115
RAD50_Q92878_133_CAEIDREMISSLGVSK (UniProt Q92878),-0.195,-0.429
RAD50_Q92878_325_LVDCHR (UniProt Q92878),0.155,0.274
PYCR2_Q96C36_225_MLLDSEQHPCQLK (UniProt Q96C36),-0.207,-0.344
PYCR2_Q96C36_232_DNVCSPGGATIHALHFLESGGFR (UniProt Q96C36),0.0302,-0.123
QTRT1_Q9BXR0_70_ICLGNTYHLGLRPGPELIQK (UniProt Q9BXR0),0.124,-0.276
RAB3GAP1_Q15042_218_IGCPLTPLPPVSIAIR (UniProt Q15042),0.183,0.0775
RAD21_O60216_35_AHVFECNLESSVESIISPK (UniProt O60216),0.154,0.13
RAB11FIP1_Q6WKZ4_1028_LVLGEGLCDFR (UniProt Q6WKZ4),-0.643,-0.406
RAB43_Q86YS6_157_EVSLAEAQSLAEHYDILCAIETSAK (UniProt Q86YS6),0.0749,0.197
RAB3GAP2_Q9H2M9_636_SQELESVDEGLLQFCANK (UniProt Q9H2M9),0.0951,0.0894
PXN_P49023_561_FHPEHFVCAFCLK (UniProt P49023),-0.0845,-0.0794
RAB9A_P51151_142_QVSTEEAQAWCR (UniProt P51151),-0.0691,0.14
RABGAP1_Q9Y3P9_433_VCSPNER (UniProt Q9Y3P9),0.301,0.299
RAB7A_P51149_83_GADCCVLVFDVTAPNTFK (UniProt P51149),0.0266,-0.0612
RABGAP1_Q9Y3P9_969_QKVDDCER (UniProt Q9Y3P9),0.14,-0.388
RABEP2_Q9H5N1_482_VQREETEVLEASLCSLR (UniProt Q9H5N1),0.00216,-0.31
RAB18_Q9NP72_160_TCDGVQCAFEELVEK (UniProt Q9NP72),-0.00893,0.0338
RAE1_P78406_217_CVAIFK (UniProt P78406),0.0398,-0.0467

Target,probe-labelled cysteine peptide fold change (10 µM),probe-labelled cysteine peptide fold change (50 µM)
RAB3IL1_Q8TBN0_29_STDPCQGHR (UniProt Q8TBN0),-0.335,-0.388
RAD23B_P54727_390_ALGFPEGLVIQAYFACEK (UniProt P54727),0.206,0.231
RAB4A_P20338_124_MLASQNIVIILCGNKK (UniProt P20338),-0.276,-0.0683
RAB35_Q15286_110+114_WLHEINQNCDDVCR (UniProt Q15286),0.186,0.054
RAB11FIP1_Q6WKZ4_1007_SSTLDIGALSLGLVVPCPER (UniProt Q6WKZ4),-0.0834,-0.1
RAB14_P61106_40_FMADCPHTIGVEFGTR (UniProt P61106),0.0726,-0.0566
RABL6_Q3YEC7_172_VPTHVPVCVLGNYR (UniProt Q3YEC7),-0.0178,0.0736
RAB14_P61106_40_KFMADCPHTIGVEFGTR (UniProt P61106),-0.0457,-0.281
QTRT1_Q9BXR0_23_LVAECSR (UniProt Q9BXR0),0.0605,-0.0704
PXN_P49023_387_TWHPEHFVCTHCQEEIGSR (UniProt P49023),-0.0992,-0.106
RAD50_Q92878_990_VIAQLSECEK (UniProt Q92878),0.043,0.0176
RABGGTA_Q92696_371_STVLQSELESCK (UniProt Q92696),0.037,0.0651
RAB21_Q9UL25_128_MLGNEICLCIVGNK (UniProt Q9UL25),-0.0617,0.194
RABGGTA_Q92696_186_SCLLPQLHPQPDSGPQGR (UniProt Q92696),0.0591,0.036
QARS_P47897_665_GPSGCVESLEVTCR (UniProt P47897),-0.11,0.446
RAB10_P61026_124_CDMDDKR (UniProt P61026),-0.331,-0.218
RAD50_Q92878_788_VCLTDVTIMER (UniProt Q92878),0.156,0.237
RAB1A_P62820_26_SCLLLR (UniProt P62820),-0.139,-0.425
